Several values for one entry are separate records, joined by “and”; a condition that tells them apart may be missing. Identical values can stand only once. Among all 2,000 compounds or so, fewer than 10 were called active.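 Rule for the calls: active = growth inhibition of at least 75% in every replicate, which also brings the mean inhibition to 75% or more; inconclusive = mean inhibition 75% or more but some replicate under 75%; inactive = the rest.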 The list shows a part of the results.
Experiment: growth inhibition of PfHsp90-dependent yeast, primary screen, antimalarial PfHsp90 inhibitor project, S. cerevisiae, BacTiter-Glo luminescence (AID 504594);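 note: 0% = DMSO neutral control wells and 100% = 20 µM radicicol control wells; higher value means stronger growth inhibition because the sign is flipped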
Conditions: S. cerevisiae expressing PfHsp90, BacTiter-Glo growth, 48 h; at 9.4 µM; hits give high values

| Compound | growth inhibition |
| --- | --- |
| O=C1C(Cc2ccccc2)NC(=S)N1c1ccccc1 (configuration not stated) | inactive: -12.5% |
| O=C(c1ccccc1F)c1cc2c(cc1[N+](=O)[O-])OCCO2 | inactive: 0.827% |
| Cc1ccc(S(=O)(=O)NC(=O)Nc2cc(C)ccc2F)cc1 | inactive: 5.31% |
| O=C1OC(c2ccccc2)=C/C1=C/c1cccs1 | inactive: -2.08% |
| Cc1ccc(/C(=C\CN2CCCC2)c2ccccn2)cc1 | inactive: -5.69% |
| CCOc1ccc(NC2OC(C)C(O)C(O)C2O)c([N+](=O)[O-])c1 (configuration not stated) | inactive: -13.5% |
| CC1(C)CC(O)(CNCc2ccc3c(c2)OCO3)CCO1 (configuration not stated) | inactive: 3.89% |
| O=C(O)CCCN1C(=O)NC2NC(=O)NC21 (configuration not stated) | inactive: -0.193% |
| COc1ccc2c3c([nH]c2c1)C1(NCC3)C(=O)Nc2ccccc21 (configuration not stated) | inactive: -3.79% |
| COc1ccccc1/C=C/CN1CCN(Cc2ccc(F)cc2)C(CCO)C1 (configuration not stated) | inactive: 0.857% |
| O=C(N/N=C/c1ccc([N+](=O)[O-])o1)c1ccc(O)cc1 | inactive: -12.9% |
| NC(=O)c1ncn([C@@H]2O[C@H](CO)[C@@H](O)[C@H]2O)c1O | inactive: 2.24% |
| COc1ccccc1-c1ccc(/C=C2/C=C(CC(C)C)OC2=O)o1 | inactive: 1.71% |
| CCc1cc(C(N)=S)ccn1 | inactive: -5.43% |
| Cc1ccc2c(c1)c(=O)c1c3n2CCN(C(=O)CCl)C3CC1 (configuration not stated) | inactive: -5.71% |
| COc1cc(C(=O)OCCCN(C)C)cc(OC)c1OC | inactive: -5.1% |
| O=C(OCC1CCCN2CCCCC12)c1ccc2c(c1)OCO2 (configuration not stated) | inactive: -0.24% |
| CC1(C)C(=O)OC(/C=C\c2ccccc2)C(C)(C)C1=O (configuration not stated) | inactive: -1.11% |
| O=C(O)CCn1c(=S)n(CCC(=O)O)c2ccccc21 | inactive: 7.47% |
| CC1(CC(=O)Nc2ccccc2)NC(=S)N(c2ccccc2)N1 (configuration not stated) | inactive: -3.04% |
| CCOC(=O)Nc1ccc2c(c1)N(C(=O)CCN1CCOCC1)c1ccccc1S2 | inactive: -3.19% |
| CCOC(=O)c1cnc2ccccc2c1NCCO | inactive: -9.81% |
| CN=C(NC#N)NCCSCc1nc[nH]c1C | inactive: 9.43% |
| CCC(C)NCCOCCOc1ccc(Cl)c2ccccc12 (configuration not stated) | inactive: 0.98% |
| COc1ccc(-c2csc(-c3cccnc3)n2)cc1C | inactive: -2.65% |

| Compound | growth inhibition |
| --- | --- |
| COc1ccc(C2(CCN=Cc3ccc(N(C)C)cc3)CCOC(C)(C)C2)cc1 (configuration not stated) | inactive: -0.00353% |
| COc1ccc(Br)cc1C(=O)Nc1ccc(C(=O)O)cc1 | inactive: -27.9% |
| COc1cc([C@@H]2c3cc4c(cc3[C@H](O)[C@H]3COC(=O)[C@H]23)OCO4)cc(OC)c1OC | inactive: 1.93% |
| COc1ccc(C(=O)Nc2ccccc2C(=O)NCCCn2ccnc2)cc1 | inactive: -1.51% |
| CC(C)CC(NC(=O)C(NC(=O)OC(C)(C)C)C(C)C)C(=O)NC(CCC(=O)OCc1ccccc1)C(N)=O (configuration not stated) | inactive: 9.04% |
| O=C(CC1SC(=O)NC1=O)Nc1ccc(Cl)cc1 (configuration not stated) | inactive: 4.58% |
| COc1cc(OC)c2c(C)c(Cl)c(=O)oc2c1 | inactive: -0.942% |
| COc1ccc(NC(=O)CC(c2ccccc2)c2ccco2)cc1 (configuration not stated) | inactive: 0.795% |
| CC[C@H]1CN2CCc3cc(OC)c(OC)cc3[C@@H]2C[C@@H]1C[C@H]1NCCc2cc(OC)c(OC)cc21 | inactive: -0.432% |
| CCOc1ccc2oc(-c3ccccc3)c(C(=O)O)c2c1 | inactive: -4.24% |
| COc1ccc(CCNC(=O)C(=O)Nc2ccc3c(c2)OCO3)cc1OC | inactive: 1.39% |
| CCN(CC)CCNC(=O)c1ccc(NC(C)=O)cc1 | inactive: -11% and inactive: 7.54% |
| CNC[C@H](O)c1cccc(O)c1 | inactive: 14% |
| COc1ccc2[nH]c(CN3CCN(CC(C)C)C(CCO)C3)c(C)c2c1 (configuration not stated) | inactive: -4.95% |
| Cn1c2ccccc2c2cc(/C=C(\NC(=O)c3ccccc3)C(=O)O)ccc21 | inactive: -3.83% |
| c1coc(-c2nnc3n2C2(CCCC2)Cc2ccccc2-3)c1 | inactive: 6.62% |
| O=C(/C=C/c1ccco1)Nc1ccccc1C(=O)O | inactive: 8.57% |
| O=C(CN1C(=O)c2ccccc2S1(=O)=O)Nc1ccccc1 | inactive: 13.4% |
| COc1cc2c(cc1OC)-c1nnc(C)n1C(C)(C)C2 | inactive: 5.21% |
| CCOCC(=O)Nc1ccccc1C(=O)N1CCOCC1 | inactive: 0.516% |
| O=C(O)/C=C/c1cccc(OCc2ccccc2)c1 | inactive: -8.82% |
| O=C(c1ccc(F)cc1)[C@@H]1[C@@H](C(=O)c2ccccc2)[C@@]2(C(=O)Nc3ccccc32)[C@H]2c3ccccc3C=CN12 | inactive: -1.47% |
| C#C[C@]1(O)CC[C@H]2[C@@H]3CCc4cc(OC)ccc4[C@H]3CC[C@@]21C | inactive: -7.32% |
| CC1=C(C)C(=O)C(CCCCC#CCCCC#CCO)=C(C)C1=O | inactive: 2.79% |
| N/C(=N/OS(=O)(=O)c1ccc([N+](=O)[O-])cc1)c1ccncc1 | inactive: 15.8% |

| Compound | growth inhibition |
| --- | --- |
| COc1cc2c(cc1O)CC[C@@H]1[C@@H]2CC[C@]2(C)[C@@H](O)CC[C@@H]12 | inactive: -1.15% |
| NS(=O)(=O)c1ccc(CCNC(=O)C2CCCN2C(=O)OCc2ccccc2)cc1 (configuration not stated) | inactive: -1.5% |
| C=CCNc1nc2c(c(=O)n(C)c(=O)n2C)n1CC(=C)C | inactive: -13.3% |
| Clc1ccccc1CN1CCc2sccc2C1 | inactive: -0.00592% |
| O=C(/C=C/c1ccccc1)NC(=O)c1ccccc1O | inactive: 5.73% |
| CN(C)CCCN1c2ccccc2CCc2ccc(Cl)cc21 | inactive: 5.42% |
| COc1ccc2nc(C)cc(Nc3ccccc3O)c2c1 | inactive: 0.534% |
| CC1(C)OC2OC(C(=O)N/N=C/c3ccccc3F)C3OC(C)(C)OC3C2O1 (configuration not stated) | inactive: -0.107% |
| O=C(c1ccc([N+](=O)[O-])cc1)N1CCSC1c1ccccc1Cl (configuration not stated) | inactive: 1.35% |
| O=C(O)Cc1ccc(O)c(F)c1 | inactive: 14.1% |
| CC(C)CC(=O)NC(NC(=O)CC(C)C)c1cccc([N+](=O)[O-])c1 | inactive: 2.96% |
| O=C1CC(c2ccc(OCCCCCOc3ccc(C4CC(=O)NC4=O)cc3)cc2)C(=O)N1 (configuration not stated) | inactive: -11.1% |
| CS(=O)(=O)Oc1ccc2c(c1)O/C(=C\C=C\c1ccccc1)C2=O | inactive: -3.57% |
| Nc1ncnc2c1ncn2C1OC(CO)C(O)C1O (configuration not stated) | inactive: 33.1% |
| CCCCC[C@H](O)/C=C/[C@@H]1[C@@H](C/C=C\CCCC(=O)O)[C@H]2CO[C@@H]1C2 | inactive: -34.3% |
| COc1ccc(O)c(C(=O)/C=C/c2cc3ccccc3o2)c1 | inactive: -18.5% |
| CCc1cc2c3c(c(=O)oc2cc1O)CCCC3 | inactive: 0.674% |
| O=c1[nH]cc(F)c(=O)[nH]1 | inactive: 21.4% |
| CCNC(=S)N1CCN(CCN2C(=O)c3cccc4cccc(c34)C2=O)CC1 | inactive: 2.01% |
| CC(=O)c1cccc(NC(=O)N[C@@H](CC(C)C)C(=O)O)c1 | inactive: 12.3% |
| CC1(C(=O)O)CCC(C(=O)NC2CCCCCC2)C1(C)C (configuration not stated) | inactive: -6.38% |
| CSCC[C@H](NC(=O)Nc1ccc(C)cc1C)C(=O)O | inactive: -6.89% |
| O=C(CN1C(=O)/C(=C/c2cccc(Br)c2)SC1=S)Nc1cccnc1 | inactive: -5.73% |
| CC(C)=CC/C=C1\CCC(C(=O)O)C(C(=O)O)C1 (configuration not stated) | inactive: 5.17% |
| NC(=O)c1ccccc1O | inactive: 1.27% |

| Compound | growth inhibition |
| --- | --- |
| N/C(=N\OS(=O)(=O)c1ccc2ccccc2c1)c1cccnc1 | inactive: 13.3% |
| Cc1ccc2[nH]c(=O)c(Cc3ccccc3)c(O)c2c1 | inactive: 0.831% |
| CCOC(=O)N1CCC(=C2c3ccc(Cl)cc3CCc3cccnc32)CC1 | inactive: -26.4% |
| CC1CCN(C(=O)Oc2ccccc2)CC1 | inactive: 5.73% |
| COCCCC/C(=N\OCCN)c1ccc(C(F)(F)F)cc1 | inactive: -5.7% |
| C[C@]12CCC(=O)C=C1CC[C@@H]1[C@@H]2C(=O)C[C@@]2(C)[C@H]1CC[C@]2(O)C(=O)CO | inactive: -9.46% |
| O=C(O)CCSc1nc2ccccc2s1 | inactive: -10.8% |
| CC(C)(C)C(=O)Nc1cccc(OC(F)(F)C(F)Cl)c1 (configuration not stated) | inactive: 11.9% |
| Cc1ccc(N(CC2=NCCN2)c2cccc(O)c2)cc1 | inactive: -5.77% and inactive: -5.84% and inactive: 0.016% |
| O=Cc1ccc(OC(=O)c2cccnc2)cc1 | inactive: -0.91% |
| COc1ccccc1C1(CC(=O)N2CCCCC2)CCOC(C(C)C)C1 (configuration not stated) | inactive: 14.4% |
| O=C(CN1CCN(Cc2ccccc2)CC1)N1CCCc2c1c(=O)oc1ccc(O)cc21 | inactive: -7.45% |
| COc1ccc(N2CCN(C(=S)NCc3ccccc3)CC2)cc1 | inactive: -6.04% |
| N#Cc1cc2c([nH]c1=O)CCCC2 | inactive: 8.49% |
| Cn1c(=O)[nH]c(=O)c2c1ncn2CCN1CCOCC1 | inactive: -13.7% |
| O=C(NCCO)c1ccc(Cl)c(Cl)c1 | inactive: -11.9% |
| COc1ccc(C=NCC2COc3ccccc3O2)cc1OC (configuration not stated) | inactive: 13.6% |
| CN(C)c1ccc(O)c2c1CC1CC3[C@@H](N(C)C)C(=O)C(C(N)=O)=C(O)[C@]3(O)C(=O)C1=C2O (some centres not stated) | inactive: -9.48% |
| CC(=O)OCC(=O)[C@H]1CC[C@H]2[C@@H]3CC=C4C[C@@H](O)CC[C@]4(C)[C@H]3CC[C@]12C | inactive: 29.2% |
| O=C(O)C1Cc2ccccc2CN1S(=O)(=O)c1ccccc1 (configuration not stated) | inactive: 3.53% |
| O=C(Nc1ccc(C(=O)NC2CCCCC2)cc1)c1cccnc1 | inactive: -6.79% |
| c1ccc(CC2=NCCN2)cc1 | inactive: -12.3% |

Reference: PubChem BioAssay AID504594 (Broad Institute, 2011)
